# From the supplement of paper PMC8728848
# This is one part of the list.
# B1: SynCAM (Mus musculus) (protein)
# chain: MASAVLPSGSQCAAAAAVAAAAAPPGLRLRLLLLLLSAAALIPTGDGQNLFTKDVTVIEGEVATISCQVNKSDDSVIQLLNPNRQTIYFRDFRPLKDSRFQLLNFSSSELKVSLTNVSISDEGRYFCQLYTDPPQESYTTITVLVPPRNLMIDIQKDTAVEGEEIEVNCTAMASKPATTIRWFKGNKELKGKSEVEEWSDMYTVTSQLMLKVHKEDDGVPVICQVEHPAVTGNLQTQRYLEVQYKPQVHIQMTYPLQGLTREGDAFELTCEAIGKPQPVMVTWVRVDDEMPQHAVLSGPNLFINNLNKTDNGTYRCEASNIVGKAHSDYMLYVYDPPTTIPPP
# Columns and labels:
# Experiment in all cases: glycan array binding signal (z-score within array); higher = stronger binding
# Settings in all cases: glycan notation: IUPAC condensed, linker removed
# [1] = molecular target: Gal(a1-3)Gal(b1-3)GlcNAc
# How it was run: (§1)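 Glycan array data were curated from 3228 arrays in the Consortium for Functional Glycomics database and kept only where the protein sequence was available. Glycan names were converted to IUPAC-condensed notation, and columns mapping to the same glycan were averaged. The binding signal is a within-array Z-score, averaged across arrays of the same protein sequence at different concentrations or buffers and across linkers. Negative Z-scores can be read as non-binding.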
# [2] = molecular target: Gal(a1-3)Gal(b1-3)GlcNAc(b1-2)Man
# How it was run: as §1
# [3] = molecular target: Gal(a1-3)Gal(b1-3)GlcNAc(b1-2)Man(a1-3)[Gal(a1-3)Gal(b1-3)GlcNAc(b1-2)Man(a1-6)]Man(b1-4)GlcNAc(b1-4)GlcNAc
# How it was run: as §1
# [4] = molecular target: Gal(a1-3)Gal(b1-3)GlcNAc(b1-3)GalNAc
# How it was run: as §1
# [5] = molecular target: Gal(a1-3)Gal(b1-3)GlcNAc(b1-6)GalNAc
# How it was run: as §1
# [6] = molecular target: Gal(a1-3)Gal(b1-3)[Fuc(a1-4)]GlcNAc(b1-2)Man(a1-3)[Gal(a1-3)Gal(b1-3)[Fuc(a1-4)]GlcNAc(b1-2)Man(a1-6)]Man(b1-4)GlcNAc(b1-4)GlcNAc
# How it was run: as §1
# [7] = molecular target: Gal(a1-3)Gal(b1-4)Glc
# How it was run: as §1
# [8] = molecular target: Gal(a1-3)Gal(b1-4)GlcNAc
# How it was run: as §1
# [9] = molecular target: Gal(a1-3)Gal(b1-4)GlcNAc(b1-2)Man
# How it was run: as §1
# [10] = molecular target: Gal(a1-3)Gal(b1-4)GlcNAc(b1-2)Man(a1-3)[Gal(a1-3)Gal(b1-4)GlcNAc(b1-2)Man(a1-6)]Man(b1-4)GlcNAc(b1-4)GlcNAc
# How it was run: as §1
# [11] = molecular target: Gal(a1-3)Gal(b1-4)GlcNAc(b1-3)GalNAc
# How it was run: as §1
# [12] = molecular target: Gal(a1-3)Gal(b1-4)GlcNAc(b1-6)GalNAc
# How it was run: as §1
# [13] = molecular target: Gal(a1-3)Gal(b1-4)[Fuc(a1-3)]GlcNAc
# How it was run: as §1
# [14] = molecular target: Gal(a1-3)Gal(b1-4)[Fuc(a1-3)]GlcNAc(b1-2)Man(a1-3)[Gal(a1-3)Gal(b1-4)[Fuc(a1-3)]GlcNAc(b1-2)Man(a1-6)]Man(b1-4)GlcNAc(b1-4)GlcNAc
# How it was run: as §1
# [15] = molecular target: Gal(a1-3)GalNAc
# How it was run: as §1
# [16] = molecular target: Gal(a1-3)[Gal(a1-4)]Gal(b1-4)GlcNAc
# How it was run: as §1
# [17] = molecular target: Gal(a1-4)Gal(b1-3)GlcNAc(b1-2)Man(a1-3)[Gal(a1-4)Gal(b1-3)GlcNAc(b1-2)Man(a1-6)]Man(b1-4)GlcNAc(b1-4)GlcNAc
# How it was run: as §1
# [18] = molecular target: Gal(a1-4)Gal(b1-4)Glc
# How it was run: as §1
# [19] = molecular target: Gal(a1-4)Gal(b1-4)GlcNAc
# How it was run: as §1
# [20] = molecular target: Gal(a1-4)Gal(b1-4)GlcNAc(b1-2)Man(a1-3)[Gal(a1-4)Gal(b1-4)GlcNAc(b1-2)Man(a1-6)]Man(b1-4)GlcNAc(b1-4)GlcNAc
# How it was run: as §1
# [21] = molecular target: Gal(a1-4)Gal(b1-4)GlcNAc(b1-3)Gal(b1-4)Glc
# How it was run: as §1
# [22] = molecular target: Gal(a1-4)GlcNAc
# How it was run: as §1
# [23] = molecular target: Gal(a1-6)Glc
# How it was run: as §1
# [24] = molecular target: Gal(b1-2)Gal
# How it was run: as §1
# [25] = molecular target: Gal(b1-3)Gal
# How it was run: as §1
# [26] = molecular target: Gal(b1-3)Gal(b1-4)GlcNAc
# How it was run: as §1
# [27] = molecular target: Gal(b1-3)GalNAc
# How it was run: as §1
# [28] = molecular target: Gal(b1-3)GalNAc(a1-3)[Fuc(a1-2)]Gal(b1-4)Glc
# How it was run: as §1
# [29] = molecular target: Gal(b1-3)GalNAc(a1-3)[Fuc(a1-2)]Gal(b1-4)GlcNAc
# How it was run: as §1
# [30] = molecular target: Gal(b1-3)GalNAc(b1-3)Gal
# How it was run: as §1
# [31] = molecular target: Gal(b1-3)GalNAc(b1-3)Gal(a1-4)Gal(b1-4)Glc
# How it was run: as §1
# [32] = molecular target: Gal(b1-3)GalNAc(b1-4)Gal(b1-4)Glc
# How it was run: as §1
# [33] = molecular target: Gal(b1-3)GalNAc(b1-4)[Neu5Ac(a2-3)]Gal(b1-4)Glc
# How it was run: as §1
# [34] = molecular target: Gal(b1-3)GlcNAc
# How it was run: as §1
# [35] = molecular target: Gal(b1-3)GlcNAc(a1-3)Gal(b1-4)GlcNAc
# How it was run: as §1
# [36] = molecular target: Gal(b1-3)GlcNAc(a1-6)Gal(b1-4)GlcNAc
# How it was run: as §1
# [37] = molecular target: Gal(b1-3)GlcNAc(b1-2)Man
# How it was run: as §1
# [38] = molecular target: Gal(b1-3)GlcNAc(b1-2)Man(a1-3)[Gal(b1-3)GlcNAc(b1-2)Man(a1-6)]Man(b1-4)GlcNAc(b1-4)GlcNAc
# How it was run: as §1
binder,measurement,setting,value
B1,glycan array binding signal (z-score),[1],-0.43
same,glycan array binding signal (z-score),[2],-1.05
same,glycan array binding signal (z-score),[3],-1.34
same,glycan array binding signal (z-score),[4],-0.89
same,glycan array binding signal (z-score),[5],0.486
same,glycan array binding signal (z-score),[6],1.69
same,glycan array binding signal (z-score),[7],-0.165
same,glycan array binding signal (z-score),[8],-1.52
same,glycan array binding signal (z-score),[9],-0.793
same,glycan array binding signal (z-score),[10],0.403
same,glycan array binding signal (z-score),[11],-0.603
same,glycan array binding signal (z-score),[12],0.184
same,glycan array binding signal (z-score),[13],-0.499
same,glycan array binding signal (z-score),[14],1.48
same,glycan array binding signal (z-score),[15],0.125
same,glycan array binding signal (z-score),[16],2.35
same,glycan array binding signal (z-score),[17],-0.748
same,glycan array binding signal (z-score),[18],-0.6
same,glycan array binding signal (z-score),[19],0.522
same,glycan array binding signal (z-score),[20],1.04
same,glycan array binding signal (z-score),[21],-0.973
same,glycan array binding signal (z-score),[22],-0.793
same,glycan array binding signal (z-score),[23],-0.988
same,glycan array binding signal (z-score),[24],0.521
same,glycan array binding signal (z-score),[25],-0.772
same,glycan array binding signal (z-score),[26],-0.768
same,glycan array binding signal (z-score),[27],-0.166
same,glycan array binding signal (z-score),[28],-0.088
same,glycan array binding signal (z-score),[29],1.09
same,glycan array binding signal (z-score),[30],0.652
same,glycan array binding signal (z-score),[31],-0.615
same,glycan array binding signal (z-score),[32],0.216
same,glycan array binding signal (z-score),[33],-0.643
same,glycan array binding signal (z-score),[34],0.224
same,glycan array binding signal (z-score),[35],-0.387
same,glycan array binding signal (z-score),[36],0.338
same,glycan array binding signal (z-score),[37],0.251
same,glycan array binding signal (z-score),[38],-0.222

# An excerpt of these results, bar-delimited:
binder | measurement | setting | value
B1 | glycan array binding signal (z-score) | [14] | 1.48
same | glycan array binding signal (z-score) | [36] | 0.338
